About 3,700 (1.2%) of roughly 300,000 compounds were called active. Inconclusive means that the source gave no clear call. Such entries were picked first, then a sample of the others. Calls come from the whole dose curve; tested in HEK293 cells. Where the call is inconclusive, the potency comes from a doubtful curve fit.
Experiment: qHTS for Inhibitors of binding or entry into cells for Lassa Virus; note: nearly all actives have a fitted effect of over 50% in size
Conditions: Lassa virus pseudotype entry inhibition, cell reporter; activity change, negative = inhibition: at 37.9 µM (top of the series) unless noted
% is set by controls: 0 for no effect and ±100 for the full control effect; potency is the fitted concentration of half-maximal effect.

Row | Structure (SMILES) | Potency | activity change, negative = inhibition
1 | FC(F)Oc1ccc(-c2csc(=Nc3cccnc3)n2CC2CCCO2)cc1 (configuration not stated) | inconclusive: 16.4 µM [inhibitor, single point] | –
2 | COc1ccc(N2CC(C(=O)Nc3ccccc3C(=O)NCc3ccco3)CC2=O)cc1 (configuration not stated) | inactive | –
3 | Cc1n[nH]c(=S)n1/N=C/c1ccccc1OCc1ccc(Cl)cc1Cl | inconclusive: 35.5 µM [inhibitor, single point] | –
4 | O=C(Nc1ccon1)c1ccc(S(=O)(=O)N2CCCCCC2)cc1 | inactive | –
5 | Cc1cc(C)c2nc(C(F)(F)F)nc(NCCCN3CCCC3=O)c2c1 | inconclusive: 32.6 µM [inhibitor, single point] | –
6 | CSc1ccc(CCNS(=O)(=O)c2cc(-c3cc(C)no3)ccc2C)cc1 | inconclusive: 35.5 µM [inhibitor, partial curve, poor fit] | –
7 | COc1ccc(N2C(=O)c3ccccc3NC23CCCC3)cc1 | inconclusive: 15.8 µM [inhibitor, single point] | –
8 | CCOc1ccc(OC(=O)c2sc3ncn(Cc4cccc(F)c4)c(=O)c3c2C)cc1 | inconclusive: 1.12 µM [activator, full curve, poor fit] | –
9 | Cc1cccc(CSc2nnc(-c3ccccn3)n2N)c1 | inactive | –
10 | CC(=O)c1cccc(NC(=O)Nc2cccs2)c1 | – | inconclusive: 16.7% [activator]
11 | O=C1CCC2S/C(=C/Nc3ccc(C(F)(F)F)cc3)C(=O)N12 (configuration not stated) | inconclusive: 10 µM [inhibitor, partial curve, poor fit] | –
12 | OCC1OC(n2cnc3c(SCc4ccccc4)ncnc32)C(O)C1O (configuration not stated) | inconclusive: 15.8 µM [inhibitor, single point] | –
13 | Cc1ccc(-c2nnc(Nc3cccc(Br)c3)c3ccccc23)cc1S(=O)(=O)N1CCN(C)CC1 | inconclusive: 11.2 µM [inhibitor, partial curve, poor fit] | –
14 | CC(C)(C)c1nc(NCCO)c2nnn(Cc3ccccc3)c2n1 | inconclusive: 11.2 µM [inhibitor, single point] | –
15 | O=C(c1ccc(OC2CCN(Cc3ccccc3C(F)(F)F)CC2)cc1)N1CCCCC1 | inconclusive: 35.5 µM [inhibitor, single point] | –
16 | Cc1c(Cl)cccc1NC(=S)N(Cc1cccs1)C1CCCC1 | inconclusive: 11.2 µM [inhibitor, partial curve, poor fit] | –
17 | Nc1cc(-c2nn[nH]n2)ccc1F | inconclusive: 8.91 µM [activator, partial curve] | –
18 | Cc1cccc(C)c1Nc1nnc(SCC(=O)NCc2cccs2)s1 | inactive | –
19 | Cc1ccccc1NC(=O)Cn1nnc(C(=O)NCc2ccco2)c1N | inactive | –
20 | O=C(CCCOc1ccccc1)N1CCN(c2ccccn2)CC1 | inconclusive: 22.4 µM [inhibitor, single point] | –
21 | CCOC(=O)CSc1nc2cc(C(=O)OC)ccc2c(=O)n1CCN1CCOCC1 | inactive | –
22 | CCN(CC)S(=O)(=O)c1ccc(OC)c(NC(=O)CSc2cc(C)ccc2C)c1 | active: 0.206 µM | –
23 | COc1ccccc1N1CCN(C(=O)C2CCN(S(=O)(=O)c3cccs3)CC2)CC1 | inconclusive: 5.62 µM [activator, single point] | –

Row | Structure (SMILES) | Potency | activity change, negative = inhibition
24 | COc1ccc(Nc2nc(C)c3ccccc3n2)cc1 | inactive | –
25 | Cc1ccc(C)c(N(CC(=O)NC2CCCC2)C(=O)c2oc(C(C)(C)C)cc2C)c1 | inconclusive: 14.6 µM [inhibitor, partial curve, poor fit] | –
26 | CN(C)/C=C(\C#N)C(=O)N/N=C/c1ccccc1 | inconclusive: 11.2 µM [activator, partial curve, poor fit] | –
27 | Cc1cccc(C(=O)n2nc(-c3ccco3)nc2NCc2ccccc2)c1 | inconclusive: 11.2 µM [activator, partial curve, poor fit] | –
28 | Nc1nc(-c2ccc3c(c2)CCCC3)c(CC(=O)O)s1 | inconclusive: 2.82 µM [activator, single point] | –
29 | Cc1cccc(N2CCN(C(=O)c3ccc(N4CCCC4=O)cc3)CC2C)c1 (configuration not stated) | inconclusive: 29.1 µM [inhibitor, single point] | –
30 | CCOC(=O)CC(=O)CSc1nc2ccc(OC)cc2cc1C | inconclusive: 11.2 µM [inhibitor, partial curve] | –
31 | C/C(=N\NC(=O)c1nn(C)c(C)c1Br)c1ccc(NC(=O)c2ccccc2F)cc1 | inactive | –
32 | CCN(CC)C(=O)CN1C(=O)C2(OCC(C)(c3ccccc3)CO2)c2ccccc21 (configuration not stated) | inconclusive: 23.1 µM [inhibitor, single point] | –
33 | CCCN1C(=O)/C(=C2\SC(N3CCCCC3)=NC2=O)c2ccccc21 | inconclusive: 5.62 µM [activator, single point] | –
34 | O=C(NCc1ccco1)c1cc2n(n1)C(C(F)(F)F)CC(c1ccc(Br)cc1)N2 (configuration not stated) | inconclusive: 29.1 µM [inhibitor, single point] | –
35 | COc1ccc(-n2cnc3cc(N)ccc32)cc1 | inconclusive: 0.259 µM [inhibitor, full curve, poor fit] | –
36 | CC(C)=C1SC(N2CCN(c3ccc(Cl)cc3)CC2)=NC1=O | inactive | –
37 | CCOc1ccc2oc(C(=O)NC3CCN(Cc4ccccc4)CC3)c(C)c2c1 | active: 11.2 µM | –
38 | CCOC(=O)c1cn(Cc2cccc(Cl)c2)nn1 | inconclusive: 13 µM [inhibitor, partial curve, poor fit] | –
39 | CCn1cc2nc(SCc3c(F)cccc3Cl)n(CCc3ccccc3)c(=O)c2n1 | inconclusive: 11.2 µM [inhibitor, partial curve, poor fit] | –
40 | COc1ccc(NC(=O)c2ccc3c(c2)C(=O)N(CC2CCCO2)C3=O)c(OC)c1 (configuration not stated) | inconclusive: 0.562 µM [activator, full curve, poor fit] | –
41 | C/C(=N\NC(=O)c1cccc(S(=O)(=O)N2CCCC2)c1)c1ccco1 | inactive | –
42 | Cc1cccc(Nc2nc(-c3ccc(O)c(O)c3)cs2)n1 | inactive | –
43 | COc1ccc(OC)c(NC(=O)C(Cc2ccccc2)NS(=O)(=O)c2ccc3c(c2)CCC(=O)N3)c1 (configuration not stated) | inconclusive: 10 µM [inhibitor, partial curve, poor fit] | –
44 | Cn1c(NC(=S)Nc2ccccc2)nc2ccccc21 | inconclusive: 4.47 µM [inhibitor, full curve, poor fit] | –
45 | CN(C)Cc1c(C(=O)N/N=C/c2cccc(OCc3ccc(F)cc3)c2)nnn1-c1nonc1N | inconclusive: 15.8 µM [inhibitor, single point] | –
46 | Cc1ccc2nc(-c3ccc(N4CCOCC4)cc3)c(Nc3ccccc3C)n2c1 | inconclusive: 35.5 µM [inhibitor, single point] | –

Whole records from above:
CCOC(=O)CC(=O)CSc1nc2ccc(OC)cc2cc1C is entered as Potency: inconclusive: 11.2 µM [inhibitor, partial curve]
Cc1cccc(C(=O)n2nc(-c3ccco3)nc2NCc2ccccc2)c1 is entered as Potency: inconclusive: 11.2 µM [activator, partial curve, poor fit]
Nc1nc(-c2ccc3c(c2)CCCC3)c(CC(=O)O)s1 is entered as Potency: inconclusive: 2.82 µM [activator, single point]
Cc1ccc(C)c(N(CC(=O)NC2CCCC2)C(=O)c2oc(C(C)(C)C)cc2C)c1 is entered as Potency: inconclusive: 14.6 µM [inhibitor, partial curve, poor fit]

Numbers 24–25 from above:
Row | Structure (SMILES) | Potency | activity change, negative = inhibition
24 | COc1ccc(Nc2nc(C)c3ccccc3n2)cc1 | inactive | –
25 | Cc1ccc(C)c(N(CC(=O)NC2CCCC2)C(=O)c2oc(C(C)(C)C)cc2C)c1 | inconclusive: 14.6 µM [inhibitor, partial curve, poor fit] | –

Additional entries follow:

Row | Structure (SMILES) | Potency | activity change, negative = inhibition
47 | COc1ccc(-n2c(COc3cccc(C)c3)nnc2SCC(=O)NCc2ccco2)cc1 | inconclusive: 0.92 µM [inhibitor, partial curve, poor fit] | –
48 | O=C(CN1C(=O)COc2ccc(S(=O)(=O)NC3CCCC3)cc21)Nc1ccc(F)c(Cl)c1 | inconclusive: 8.91 µM [activator, partial curve, poor fit] | –
49 | Cc1c(F)cccc1NS(=O)(=O)c1ccc2c(c1)NC(=O)CO2 | inconclusive: 35.5 µM [activator, single point] | –
50 | Cc1oc(-c2ccc(Cl)cc2)nc1CN1CCCC(C(=O)NCc2cccnc2)C1 (configuration not stated) | inactive | –
51 | CCOc1ccc(NC(=O)COc2ccccc2)c([N+](=O)[O-])c1 | inconclusive: 20 µM [inhibitor, single point] | –
52 | COc1ccc2cc(C(=O)C3CCCN(C(=O)c4cc5nc(C)cc(C)n5n4)C3)ccc2c1 (configuration not stated) | inactive | –
53 | CC1=NN(C(=O)c2cccnc2)C(O)(C(F)(F)F)C1 (configuration not stated) | inactive | –
54 | COc1ccc(NC(=O)CN(C)C(=O)c2ccccc2OC)cc1 | inconclusive: 12.6 µM [inhibitor, partial curve, poor fit] | –
55 | Cc1ccccc1N1C(=O)NC(=O)/C(=C\c2ccc3c(c2)CCCN3Cc2ccccc2)C1=O | inconclusive: 6.51 µM [inhibitor, partial curve, poor fit] | –
56 | COc1cc(NC(=O)c2cc([N+](=O)[O-])ccc2NC(=O)CNC2CCCCC2C)cc(OC)c1 (configuration not stated) | inconclusive: 22.4 µM [inhibitor, single point] | –
57 | O=[N+]([O-])c1ccc(NN=Cc2ccccc2O)nc1 | inconclusive: 35.5 µM [inhibitor, single point] | –
58 | COc1ccc(-c2nnc(SCC(=O)c3cccs3)n2-c2ccc(Cl)cc2)cc1 | inconclusive: 11.2 µM [inhibitor, single point] | –
59 | CNC(=O)C1CCC(Cn2c(=O)c3sccc3n(CC(=O)Nc3ccc(C)cc3C)c2=O)CC1 (configuration not stated) | inactive | –
60 | O=c1[nH]c(SCc2nc3c(cnn3-c3ccccc3)c(=O)[nH]2)nc2ccccc12 | active: 0.708 µM | –
61 | Cc1ccccc1OCC(O)CN1CCN(CC(O)COc2ccccc2C)C(C)C1 (configuration not stated) | inconclusive: 5.62 µM [inhibitor, single point] | –
62 | CCOC(=O)c1cc(-c2ccco2)nc2c1c(C)nn2CCC#N | inactive | –
63 | Cc1nnc(SCC(=O)NCc2cccc(F)c2)c2nn(-c3ccccc3)c(C)c12 | inconclusive: 6.31 µM [inhibitor, full curve, poor fit] | –
64 | COc1ccc(CCNC(=O)c2[nH]c(C)c(C(C)=O)c2C)cc1 | inactive | –
65 | COc1ccc(-n2nc3c(N4CCCC(C(=O)NCc5ccccc5C)C4)nnc(C)c3c2C)cc1 (configuration not stated) | active: 6.31 µM | –
66 | Cc1cc(C(=O)Cn2cc(C(F)(F)F)ccc2=O)c(C)n1-c1ccccc1 | inconclusive: 14.1 µM [inhibitor, partial curve, poor fit] | –
67 | CCOC(=O)C1(Cc2cccc(OC)c2)CCN(Cc2cnc(C)s2)CC1 | inactive | –
